The target in data set [1] is FoxO1-PR (phospho-resistant) S209A,S215A,S218A,T228A,S232A,S243A (mouse) (UniProt Q9R1E0). Put plainly: EMSA. As to conditions: pre-incubated with Mst1; EMSA: 20 mM Tris-HCl pH 8.0, 40 mM KCl, 5% glycerol, 0.4 mM DTT, 0.2 mM EDTA, 2 mM MgCl2, 1 mg/ml BSA, 20 ng poly(dI-dC), on ice 15 min, 50 ng protein; recombinant protein; protein details: GST removed by PreScission (general method); label: 32P end label. Background: In EMSA bound probe runs differently from free probe, usually more slowly.

Another data set addresses FoxO1-WT (mouse) (UniProt Q9R1E0). The experiment in a line: EMSA. As to conditions: without Mst1; EMSA: 20 mM Tris-HCl pH 8.0, 40 mM KCl, 5% glycerol, 0.4 mM DTT, 0.2 mM EDTA, 2 mM MgCl2, 1 mg/ml BSA, 20 ng poly(dI-dC), on ice 15 min, 50 ng protein; recombinant protein; protein details: GST removed by PreScission (general method); label: 32P end label.
Data set [2] addresses FoxO1-PM (phospho-mimetic) (mouse) (UniProt Q9R1E0). The experiment in a line: EMSA. The settings on record: EMSA: 20 mM Tris-HCl pH 8.0, 40 mM KCl, 5% glycerol, 0.4 mM DTT, 0.2 mM EDTA, 2 mM MgCl2, 1 mg/ml BSA, 20 ng poly(dI-dC), on ice 15 min, 50 ng protein; recombinant protein; protein details: GST removed by PreScission (general method); label: 32P end label.
For data set [3], the target named is FoxO1-PR (phospho-resistant) S209A,S215A,S218A,T228A,S232A,S243A (mouse) (UniProt Q9R1E0). Put plainly: pull-down. As to conditions: with Mst1; pull-down (1x buffer): 10 mM HEPES pH 8, 50 mM KCl, 2.5 mM MgCl2, 1 mM EDTA, 1 mM DTT, 0.1% IGEPAL, 4 C 2 h; recombinant protein; protein details: GST removed by PreScission (general method); label: 5' biotin on sense strand.

The target of data set [4] is FoxO1-PM (phospho-mimetic) (mouse) (UniProt Q9R1E0). The experiment in a line: pull-down. The settings on record: pull-down (1x buffer): 10 mM HEPES pH 8, 50 mM KCl, 2.5 mM MgCl2, 1 mM EDTA, 1 mM DTT, 0.1% IGEPAL, 4 C 2 h; recombinant protein; protein details: GST removed by PreScission (general method); label: 5' biotin on sense strand.
The target of data set [5] is FoxO1(S209A) + Mst1 (mouse) (UniProt Q9R1E0). Put plainly: pull-down. As to conditions: with Mst1; pull-down (1x buffer): 10 mM HEPES pH 8, 50 mM KCl, 2.5 mM MgCl2, 1 mM EDTA, 1 mM DTT, 0.1% IGEPAL, 4 C 2 h; recombinant protein; label: 5' biotin on sense strand.

The exact form of at least one protein or probe is not confirmed. For part of these data: Negatives hold for the conditions tested.

In the case of “CCTTGTTTACGGGTTGTTTACGGGTTGTTTACCC (double strand) [3xDBE EMSA probe]”, the binding result in data set [1] is “binds”; in the data set with FoxO1-WT (mouse), “binds”; in data set [2], “no binding”.
Regarding “CCTTGTTTACGGGTTGTTTACGGGTTGTTTACCC (double strand) [WT-3xDBE (Biotin-FHRE-wild type)]”, the binding result in data set [3] is “binds”; in data set [4] it was “no binding”; in data set [5] it was “no binding”.

The values are drawn from article PMC11282193.
